Data reported in PMC9763329, “Targeting the transcription factor HES1 by L-menthol restores protein phosphatase 6 in keratinocytes in models of psoriasis” (Nature Communications, 2022).
These are yes or no findings as the source states them, for the method shown. Binding seen in cells or lysates may run through a third protein. These calls come from enrichment with a bait or labelling near it, and not all partners need be listed.

Protein sequences, listed by entry. Tags and fused reporters are not part of them.
UniProt O14965: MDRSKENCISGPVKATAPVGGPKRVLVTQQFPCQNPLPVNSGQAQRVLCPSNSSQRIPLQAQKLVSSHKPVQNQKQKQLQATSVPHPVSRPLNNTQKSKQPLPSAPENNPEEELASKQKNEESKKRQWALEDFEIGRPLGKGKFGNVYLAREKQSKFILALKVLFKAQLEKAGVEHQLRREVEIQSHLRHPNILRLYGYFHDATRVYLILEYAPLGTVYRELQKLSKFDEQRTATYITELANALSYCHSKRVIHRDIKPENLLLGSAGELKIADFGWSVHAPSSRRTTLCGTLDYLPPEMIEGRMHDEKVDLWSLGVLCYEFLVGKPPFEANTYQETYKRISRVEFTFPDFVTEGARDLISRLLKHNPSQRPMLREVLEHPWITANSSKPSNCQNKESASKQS
UniProt Q01105: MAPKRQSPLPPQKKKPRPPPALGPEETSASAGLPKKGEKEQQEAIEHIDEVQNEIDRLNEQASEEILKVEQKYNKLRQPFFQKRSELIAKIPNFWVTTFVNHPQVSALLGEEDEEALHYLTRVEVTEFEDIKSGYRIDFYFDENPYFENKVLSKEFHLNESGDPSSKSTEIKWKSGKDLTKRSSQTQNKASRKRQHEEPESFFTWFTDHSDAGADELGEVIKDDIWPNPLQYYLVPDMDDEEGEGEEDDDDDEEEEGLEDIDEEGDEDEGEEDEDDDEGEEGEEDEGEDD

T1: Protein phosphatase 6 (PP6), overexpressed in HaCaT cells (UniProt O00743)
T1 sequence: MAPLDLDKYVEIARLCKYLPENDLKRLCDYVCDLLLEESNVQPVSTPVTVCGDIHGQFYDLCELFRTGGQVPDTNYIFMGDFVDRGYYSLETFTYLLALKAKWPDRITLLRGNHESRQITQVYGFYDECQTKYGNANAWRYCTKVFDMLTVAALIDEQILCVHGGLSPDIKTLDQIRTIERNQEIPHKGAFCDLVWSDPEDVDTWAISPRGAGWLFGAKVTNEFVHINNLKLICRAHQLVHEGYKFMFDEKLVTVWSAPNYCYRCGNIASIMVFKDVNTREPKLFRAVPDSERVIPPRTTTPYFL

B1: immunoglobulin-binding protein 1 (IGBP1) (protein, UniProt P78318 1-339)
chain: MAAEDELQLPRLPELFETGRQLLDEVEVATEPAGSRIVQEKVFKGLDLLEKAAEMLSQLDLFSRNEDLEEIASTDLKYLLVPAFQGALTMKQVNPSKRLDHLQRAREHFINYLTQCHCYHVAEFELPKTMNNSAENHTANSSMAYPSLVAMASQRQAKIQRYKQKKELEHRLSAMKSAVESGQADDERVREYYLLHLQRWIDISLEEIESIDQEIKILRERDSSREASTSNSSRQERPPVKPFILTRNMAQAKVFGAGYPSLPTMTVSDWYEQHRKYGALPDQGIAKAAPEEFRKAAQQQEEQEEKEEEDDEQTLHRAREWDDWKDTHPRGYGNRQNMG

Each molecule was assayed against T1, Protein phosphatase 6 (PP6), overexpressed in HaCaT cells (assay: affinity purification with mass spectrometry; lysates of PP6-overexpressing HaCaT cells (with or without 10 uM L-menthol, in the presence of 1 ug/ml R848) incubated with anti-PPP6C or rabbit IgG overnight at 4 C, protein A/G magnetic beads; precipitates analysed by mass spectrometry, hits picked with GeneMANIA analysis).

Question: How did the binding turn out when “AURKA (from UniProt O14965 1-403) (enzyme)” was run?
Answer: Its binding is “binds”.

Question: Which binding does the source give for SET (from UniProt Q01105 1-290) here?
Answer: Its binding is “binds”.

Question: How did the binding turn out when B1 was run?
Answer: Its binding is “binds”.
